{"sequences": {"note": "Sequences of proteins named here, by UniProt entry; tags and fusion partners are left off. Residues count along the entry.", "UniProt P01100, 131-169, stated change not applied": "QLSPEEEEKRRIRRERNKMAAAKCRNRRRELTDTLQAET", "UniProt P17535, 262-300, stated change not applied": "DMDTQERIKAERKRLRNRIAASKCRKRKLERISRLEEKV", "UniProt P17676, 265-303, stated change not applied": "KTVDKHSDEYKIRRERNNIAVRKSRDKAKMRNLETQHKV", "UniProt P49715, 276-314, stated change not applied": "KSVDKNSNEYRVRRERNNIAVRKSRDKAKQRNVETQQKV", "UniProt Q16649, 67-105, stated change not applied": "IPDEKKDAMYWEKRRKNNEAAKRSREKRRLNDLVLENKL"}, "source": "paper doi:10.1101/2025.08.25.672131", "assay_in_all_cases": "fluorescence anisotropy", "key": {"[1]": {"molecular_target": "Fos bZIP-ΔLZ (human) (UniProt P01100)", "details": "Kd tens to hundreds of uM, value only in figure"}, "[2]": {"molecular_target": "JunD bZIP-ΔLZ (human) (UniProt P17535)", "details": "Kd >50-fold above Jun, value only in figure"}, "[3]": {"molecular_target": "T1, ATF2 bZIP-ΔLZ (human) (UniProt P15336)", "T1 sequence (looked up, limits assumed)": "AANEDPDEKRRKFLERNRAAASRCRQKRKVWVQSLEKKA", "details": "Kd tens to hundreds of uM, value only in figure"}, "[4]": {"molecular_target": "MafG bZIP-ΔLZ (human) (UniProt O15525)", "details": "Kd tens to hundreds of uM, value only in figure"}, "[5]": {"molecular_target": "CEBPb bZIP-ΔLZ (human) (UniProt P17676)", "details": "Kd tens to hundreds of uM, value only in figure"}, "[6]": {"molecular_target": "CEBPa bZIP-ΔLZ (human) (UniProt P49715)", "details": "Kd tens to hundreds of uM, value only in figure"}, "[7]": {"molecular_target": "NFIL3 bZIP-ΔLZ (human) (UniProt Q16649)", "details": "Kd tens to hundreds of uM, value only in figure"}}, "note": "For at least one entry, the source does not settle the construct or the ends of the probe. The comparison behind a weaker result is the experiment's own reference, which may not be listed here. For some of these results: At least one verdict was read from the data and is not stated in words by the source. For some of these results: Where a protein sequence is shown, tags need not be part of it."}
{"sequence": "GGATGAGTCATTGG (double strand) [Alexa Fluor 488 target for Jun, JunD, Fos]", "values": [{"measurement": "binding result", "setting": "[1]", "value": "binds more weakly"}, {"measurement": "binding result", "setting": "[2]", "value": "binds more weakly"}]}
{"sequence": "CCTGACGTCATCCG (double strand) [Alexa Fluor 488-CRE 14 bp (ATF2, MafG target)]", "values": [{"measurement": "binding result", "setting": "[3]", "value": "binds more weakly"}, {"measurement": "binding result", "setting": "[4]", "value": "binds more weakly"}]}
{"sequence": "CCGGCCAATCTATT (double strand) [Alexa Fluor 488 target for CEBPa, CEBPb, NFIL3]", "values": [{"measurement": "binding result", "setting": "[5]", "value": "binds more weakly"}, {"measurement": "binding result", "setting": "[6]", "value": "binds more weakly"}, {"measurement": "binding result", "setting": "[7]", "value": "binds more weakly"}]}
